According to US20230051694A1, “POLYPEPTIDE FRAGMENT B (MP-B) AND USE THEREOF” (SHANGHAI LONGXIN BIOMEDICAL TECHNOLOGY CO., LTD., priority 2021, published 2023):
Some of these results come from one statement about several compounds together.

System: DSS-induced IBD in mice
Test: Intervention effect on DSS-induced acute IBD mouse model
Format: in vivo, Male C57BL6 mice
Details: tested according to the experimental method of Example 1
Experimental: The administration of a DSS solution with a specified concentration to mice can induce an acute IBD model characterized by diarrhea, hematochezia, ulcer, and granulocyte infiltration. Mice were randomly grouped according to body weights of the mice. 40 healthy male C57BL6 mice were divided into four groups each with 10 mice:
blank control group: the mice were each intragastrically administered with water every day at a volume of 0.4 mL/20 g;
model group: the mice were each intragastrically administered with a DSS aqueous solution of a mass fraction of 2.5 wt % consecutively for 7 days, where the DSS aqueous solution was freshly prepared and changed every day;
MIMP positive control group: the mice were each given a pre-administration process for one week, that is, the mice were each intragastrically administered with an MIMP solution of a mass fraction of 50 μg/kg for the first 7 days, and then from day 8, the mice were each intragastrically administered with a DSS aqueous solution of a mass fraction of 2.5 wt % (at a volume of 0.4 mL/20 g) and an MIMP solution of a mass fraction of 50 μg/kg (at a volume of 0.4 mL/20 g) every day; and […]
The body weight changes of mice in each group were recorded every day to determine whether the acute IBD mouse model was successfully established.
A mouse colon between an anus end to an ileocecal end was integrally collected, and a length of the colon was measured; and the colon was dissected along a longitudinal axis, feces therein were rinsed off, and then the colon was stored in 4% paramethanol. […]
Experimental data in the above experimental method were expressed as (x±SD), the GraphPad Prism (ver. 8.0, GraphPad Software Inc., San Diego, Calif., USA) was used to plot a chart, the SPSS Program (ver. 25.0, SPSS Inc., Chicago, Ill., USA) was used for statistical test, and one-way ANOVA or independent two-sample t-test were used for significance test when the normality and homogeneity of variances were met. […]

Sequence	analysis results (colonic pathologic morphology and colonic histopathologic score) relative to Example 1
SPLGSLDGRRTMYNLNGVKYLFAREDQLKKQ [Example 2]	not much different from the results of Example 1
SPLGSLDGRTMYNLGVKYLFARDQLKKQ [Example 4]	not much different from the results of Example 1
SPLGSLDGRTTMYNLVGVKYLFARSDQLKKQ [Example 3]	not much different from the results of Example 1
